Reference: paper PMC8659110, “Preliminary Study of New Gallium-68 Radiolabeled Peptide Targeting NRP-1 to Detect Brain Metastases by Positron Emission Tomography” (Molecules, 2021)
These are yes or no findings as the source states them, for the method shown. Some binding calls cover weakened binding; strength is not graded here.

Target: T1, NRP-1 recombinant chimeric protein (not stated (recombinant human/rat NRP-1 proteins bought)) (UniProt O14786)
T1 sequence: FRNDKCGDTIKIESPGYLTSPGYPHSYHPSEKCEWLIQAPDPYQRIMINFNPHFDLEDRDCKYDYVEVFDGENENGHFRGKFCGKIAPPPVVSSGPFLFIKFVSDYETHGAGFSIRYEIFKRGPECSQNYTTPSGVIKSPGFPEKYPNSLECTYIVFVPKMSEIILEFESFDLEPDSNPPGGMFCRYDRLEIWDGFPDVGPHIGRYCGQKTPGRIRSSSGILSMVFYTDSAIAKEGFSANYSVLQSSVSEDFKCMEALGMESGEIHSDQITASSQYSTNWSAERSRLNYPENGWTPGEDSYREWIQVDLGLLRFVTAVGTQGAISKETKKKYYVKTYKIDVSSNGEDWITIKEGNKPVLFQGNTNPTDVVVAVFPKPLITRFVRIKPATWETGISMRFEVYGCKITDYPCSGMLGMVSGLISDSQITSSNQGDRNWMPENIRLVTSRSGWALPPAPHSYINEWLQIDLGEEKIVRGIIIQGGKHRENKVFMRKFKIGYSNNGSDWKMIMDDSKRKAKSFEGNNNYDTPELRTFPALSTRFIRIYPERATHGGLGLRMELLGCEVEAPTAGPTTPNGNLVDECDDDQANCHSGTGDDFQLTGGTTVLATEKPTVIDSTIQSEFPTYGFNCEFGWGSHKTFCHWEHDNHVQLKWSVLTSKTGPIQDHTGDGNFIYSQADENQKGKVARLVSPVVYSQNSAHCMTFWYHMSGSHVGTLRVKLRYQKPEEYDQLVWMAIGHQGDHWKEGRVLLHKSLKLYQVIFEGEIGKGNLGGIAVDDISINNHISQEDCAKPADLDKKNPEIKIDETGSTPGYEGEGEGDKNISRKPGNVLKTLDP
Test: ELISA; competitive binding assay: NRP-1 recombinant chimeric protein coated on Maxisorp microplates; biotinylated VEGF-165 with heparin, with or without increasing concentrations of compounds; 2 h at room temperature; bound b-VEGF-165 detected with streptavidin-HRP, OD 450 nm; IC50 by one-site fit log-IC50; both purified

In the case of KDKPPR [KDKPPR peptide], the binding is reported as “binds”.
